Results reported in patent US9758485B2, “Compounds for controlling arthropods” (priority 2013, dated 2017).
Some of these results come from one statement about several compounds together. Some ranges recur; such a range may be that of the whole group of compounds.

Legend:
Format in all cases: in vivo
[1] = tested on: Anopheles gambiae strain RSPH (homozygot kdr); assay: Anopheles test (ANPHGB surface treatment); conditions: application rate 100 mg/m^2; glazed tile; exposure 30 minutes; mortality after 24 hours
[2] = tested on: Anopheles funestus strain FUMOZ-R; assay: Anopheles test (ANPHFU surface treatment); conditions: glazed tile, exposure 30 minutes, mortality after 24 hours
[3] = tested on: Aedes aegypti strain MONHEIM; assay: Aedes test (AEDSAE surface treatment); conditions: glazed tile, exposure 30 minutes, mortality after 24 hours

Measured: efficacy

Cc1cc(C(F)(C(F)(F)F)C(F)(F)F)cc(C)c1-c1cc(-c2ccc(Cl)c(C(=O)NC3CC3)c2)on1 [I-T22-1, 2-chloro-N-cyclopropyl-5-[3-[2,6-dimethyl-4-[1,2,2,2-tetrafluoro-1-(trifluoromethyl)ethyl]phenyl]isoxazol-5-yl]benzamide]
90-100%: [1] | [2]; application rate 20 mg/m^2 | [2]; application rate 100 mg/m^2 | [3]; application rate 20 mg/m^2 | [3]; application rate 100 mg/m^2

O=C(NC1CC1)c1cc(-c2cc(-c3c(Cl)cc(C(F)(C(F)(F)F)C(F)(F)F)cc3Cl)on2)ccc1Cl [I-T23-1, 2-chloro-N-cyclopropyl-5-[5-[2,6-dichloro-4-[1,2,2,2-tetrafluoro-1-(trifluoromethyl)ethyl]phenyl]isoxazol-3-yl]benzamide]
90-100%: [2]; application rate 20 mg/m^2 | [3]; application rate 20 mg/m^2 | [3]; application rate 100 mg/m^2

Cc1cc(C(F)(C(F)(F)F)C(F)(F)F)cc(C)c1-n1cc(-c2ccc(Cl)c(C(=O)NC3CC3)c2)cn1 [I-T3-1, 2-chloro-N-cyclopropyl-5-[1-[2,6-dimethyl-4-[1,2,2,2-tetrafluoro-1-(trifluoromethyl)ethyl]phenyl]pyrazol-4-yl]benzamide]
90-100%: [3]; application rate 20 mg/m^2 | [3]; application rate 100 mg/m^2
